Measurements published in PMC9832115.
Results are given in words; binding and its absence hold for the method and conditions named. In cells and extracts the contact can be indirect. Some results given as binding are weak or reduced against the parent protein; the word gives no strength.

T1: DRC3 (mouse (endogenous in testis)) (UniProt Q9D5E4)
T1 sequence: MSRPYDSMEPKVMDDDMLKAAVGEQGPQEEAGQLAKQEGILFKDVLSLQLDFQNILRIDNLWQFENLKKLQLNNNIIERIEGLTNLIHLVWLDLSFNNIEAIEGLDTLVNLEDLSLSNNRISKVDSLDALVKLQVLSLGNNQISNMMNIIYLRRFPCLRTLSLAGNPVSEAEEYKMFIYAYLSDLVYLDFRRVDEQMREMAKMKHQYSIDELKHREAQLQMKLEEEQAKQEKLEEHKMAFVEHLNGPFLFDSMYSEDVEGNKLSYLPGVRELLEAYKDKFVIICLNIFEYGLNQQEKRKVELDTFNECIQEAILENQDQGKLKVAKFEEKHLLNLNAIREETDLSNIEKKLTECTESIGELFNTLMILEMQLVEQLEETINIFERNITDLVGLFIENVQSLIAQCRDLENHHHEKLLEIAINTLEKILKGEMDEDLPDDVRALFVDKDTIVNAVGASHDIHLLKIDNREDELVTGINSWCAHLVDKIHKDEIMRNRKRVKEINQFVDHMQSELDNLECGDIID

B1: IFT81 (protein, UniProt O35594 1-676)
chain: MSDQIKFIVDSLNKEPFKKNYNLITFDSLGPMQLLQVLNDVLAEIDPKQDVDIREEMPEQTAKRMLNLLGILKYKPPGNATDMSTFRQGLVIGSKPVIYPVLHWLLQRSNELKKRAYLARFLIKLEVPSEFLQDETVADTNKQYEELMEAFKTLHKECEQLKTSGFSTAEIRRDISAMEEEKDQLMKRVERLKKRVETVQNHQRMLKIARQLRVEKEREEFLAQQKQEQKNQLFHAVQRLQRVQNQLKSMRHAAADAKPESLMKRLEEEIKFNSYMVTEKFPKELESKKKELHFLQKVVSEPAMGHSDLLELETKVNEVNTEINQLIEKKMMRNEPIEGKLSLYRQQASIISRKKEAKAEELQETKEKLASLEREVLVKTNQTREFDGTEVLKGDEFKRYVSKLRSKSTVFKKKHQIIAEFKAEFGLLQRTEELLKQRQETIQHQLRTIEEKKGISGYSYTQEELERVSALKSEVDEMKGRTLDDMSEMVKKLNSLVSEKKSALAPVIKELRQLRQKCQELTQECDEKKAQYDSCAAGLESNRSKLEQEVRGLREECLQEESKYHYTNCMIKNLEVELRRATDEMKAYVSSDQQEKRKAIREQYTKNITEQENLGKKLREKQKAVRESHGPNMKQAKMWRDLEQLMECKKQCFLKQQSPASIGQVIQEGGEDRLVL
B2: IFT74 (protein, UniProt Q8BKE9 1-600)
chain: MASNHKSSAPRPISRGGIGLTGRPPSGIRPPSGNVRVATAMPPTTARPGSRGGPLGTGGVLSSQIKVADRPVTQQGLSGMKTGMKGPQRQILDKSYYLGLLRSKISELTTEINKLQKEIEMYNQENSVYLSYEKRAETLAVEIKDFQGQLADYNMLVDKLNTNTEMEEVMSDYNMLKAQNDRETQSMDVIFTERQAKEKQIRSVEEEVEQEKQAADGIIKNMSPEKQVKYIEMKTTNEKLLQELDTLQQQLDSLNMKKESLETEIAHSQVKQEAVLLYEKLYELESHRDQMIAEDKSMGSPMEERERLLKQVKEDNQEIASMERQLTDIKEKINQFSEEIRQLDMDLEEHQGEMNQKYKELKKREENMDAFIETFEETKNQELERKAQIEASIITLLEHCSRNINRMKQISSITNQELKMMQDDLSFKSTEMQKSQTTARNLTSDSQRLQLDLQKMELLESKMTEEQQSLKNKIKQMTADLETYSDLAALKSSAEEKKKKLHQERTVLSTHRNAFKKIMEKLTSDYDTLKRQLQDNETHAQLTNLERKWQHLEQNNFVMKEFIATKSQESDYQPVIKNVMKQIAEYNKTIMDALHNASRS

Target: T1, DRC3 (mouse (endogenous in testis))
Test: co-IP; co-immunoprecipitation in vivo, testicular protein from wild-type mice

| binding | Binder |
| --- | --- |
| binds | B1 |
| binds | B2 |
